Publication doi:10.1101/781807
Results are given in words; binding and its absence hold for the method and conditions named. Binding seen in cells or lysates may run through a third protein. Some binding calls cover weakened binding; strength is not graded here.

Amino acid sequences for entries named in this document (tags omitted). Residues count along the entry.
UniProt P16144, residues 28-1822: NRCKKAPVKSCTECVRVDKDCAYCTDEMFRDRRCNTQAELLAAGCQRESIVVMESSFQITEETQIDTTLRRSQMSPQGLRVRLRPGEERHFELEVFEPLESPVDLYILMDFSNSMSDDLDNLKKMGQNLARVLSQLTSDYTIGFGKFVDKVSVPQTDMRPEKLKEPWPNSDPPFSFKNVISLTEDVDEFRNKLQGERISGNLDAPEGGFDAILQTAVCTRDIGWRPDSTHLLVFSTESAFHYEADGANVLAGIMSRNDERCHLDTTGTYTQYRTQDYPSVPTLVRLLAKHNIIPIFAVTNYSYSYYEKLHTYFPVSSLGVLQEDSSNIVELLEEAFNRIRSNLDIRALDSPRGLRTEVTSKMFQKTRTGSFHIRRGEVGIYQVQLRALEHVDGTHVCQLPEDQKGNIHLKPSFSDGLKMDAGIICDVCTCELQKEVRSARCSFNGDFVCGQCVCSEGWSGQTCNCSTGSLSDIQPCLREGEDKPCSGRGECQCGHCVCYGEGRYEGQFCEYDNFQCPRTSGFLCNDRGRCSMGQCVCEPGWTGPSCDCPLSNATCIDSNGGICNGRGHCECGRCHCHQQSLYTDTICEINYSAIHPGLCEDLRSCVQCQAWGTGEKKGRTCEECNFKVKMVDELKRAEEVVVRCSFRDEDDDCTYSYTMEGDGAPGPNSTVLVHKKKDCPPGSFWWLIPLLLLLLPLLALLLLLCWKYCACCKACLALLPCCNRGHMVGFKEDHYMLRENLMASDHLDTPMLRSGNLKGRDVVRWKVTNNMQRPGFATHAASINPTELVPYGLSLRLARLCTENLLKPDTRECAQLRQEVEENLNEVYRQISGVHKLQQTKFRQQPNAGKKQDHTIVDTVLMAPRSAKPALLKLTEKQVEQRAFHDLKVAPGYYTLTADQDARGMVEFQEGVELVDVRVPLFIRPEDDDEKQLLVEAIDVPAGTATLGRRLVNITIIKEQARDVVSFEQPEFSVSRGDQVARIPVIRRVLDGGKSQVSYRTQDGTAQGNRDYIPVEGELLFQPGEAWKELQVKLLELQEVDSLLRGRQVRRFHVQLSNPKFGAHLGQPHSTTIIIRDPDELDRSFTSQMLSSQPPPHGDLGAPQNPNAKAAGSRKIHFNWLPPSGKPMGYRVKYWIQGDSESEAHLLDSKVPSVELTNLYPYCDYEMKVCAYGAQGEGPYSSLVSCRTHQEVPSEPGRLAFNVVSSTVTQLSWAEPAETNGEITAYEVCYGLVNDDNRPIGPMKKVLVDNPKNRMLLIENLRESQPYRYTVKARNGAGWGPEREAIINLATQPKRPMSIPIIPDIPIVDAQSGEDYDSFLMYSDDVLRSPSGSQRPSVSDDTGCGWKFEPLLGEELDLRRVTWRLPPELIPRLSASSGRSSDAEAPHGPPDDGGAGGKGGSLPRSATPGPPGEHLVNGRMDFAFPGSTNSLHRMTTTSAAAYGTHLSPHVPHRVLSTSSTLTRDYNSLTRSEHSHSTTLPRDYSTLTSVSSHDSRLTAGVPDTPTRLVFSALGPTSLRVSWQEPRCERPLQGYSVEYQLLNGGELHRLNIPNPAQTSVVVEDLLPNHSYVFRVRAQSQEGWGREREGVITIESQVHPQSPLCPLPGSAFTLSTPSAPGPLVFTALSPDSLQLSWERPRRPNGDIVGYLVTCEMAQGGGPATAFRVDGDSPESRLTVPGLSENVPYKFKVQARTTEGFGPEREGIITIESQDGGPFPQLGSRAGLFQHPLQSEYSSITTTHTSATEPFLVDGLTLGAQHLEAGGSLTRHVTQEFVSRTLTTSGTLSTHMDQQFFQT
UniProt P49023: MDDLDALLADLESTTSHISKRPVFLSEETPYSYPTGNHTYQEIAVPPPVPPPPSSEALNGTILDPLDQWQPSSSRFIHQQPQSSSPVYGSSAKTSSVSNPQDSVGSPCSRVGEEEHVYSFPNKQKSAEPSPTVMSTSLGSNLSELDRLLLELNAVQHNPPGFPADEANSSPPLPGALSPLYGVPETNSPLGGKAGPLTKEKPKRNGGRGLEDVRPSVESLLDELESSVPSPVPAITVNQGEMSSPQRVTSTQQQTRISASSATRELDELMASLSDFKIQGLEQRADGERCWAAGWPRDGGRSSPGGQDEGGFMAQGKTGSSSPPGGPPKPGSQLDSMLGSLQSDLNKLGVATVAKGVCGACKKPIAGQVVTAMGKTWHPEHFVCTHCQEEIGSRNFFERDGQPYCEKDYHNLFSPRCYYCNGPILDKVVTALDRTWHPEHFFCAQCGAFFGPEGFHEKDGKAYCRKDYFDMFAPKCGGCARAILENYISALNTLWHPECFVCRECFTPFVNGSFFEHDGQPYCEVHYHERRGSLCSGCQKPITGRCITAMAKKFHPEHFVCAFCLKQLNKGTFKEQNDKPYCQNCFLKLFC
UniProt Q05397: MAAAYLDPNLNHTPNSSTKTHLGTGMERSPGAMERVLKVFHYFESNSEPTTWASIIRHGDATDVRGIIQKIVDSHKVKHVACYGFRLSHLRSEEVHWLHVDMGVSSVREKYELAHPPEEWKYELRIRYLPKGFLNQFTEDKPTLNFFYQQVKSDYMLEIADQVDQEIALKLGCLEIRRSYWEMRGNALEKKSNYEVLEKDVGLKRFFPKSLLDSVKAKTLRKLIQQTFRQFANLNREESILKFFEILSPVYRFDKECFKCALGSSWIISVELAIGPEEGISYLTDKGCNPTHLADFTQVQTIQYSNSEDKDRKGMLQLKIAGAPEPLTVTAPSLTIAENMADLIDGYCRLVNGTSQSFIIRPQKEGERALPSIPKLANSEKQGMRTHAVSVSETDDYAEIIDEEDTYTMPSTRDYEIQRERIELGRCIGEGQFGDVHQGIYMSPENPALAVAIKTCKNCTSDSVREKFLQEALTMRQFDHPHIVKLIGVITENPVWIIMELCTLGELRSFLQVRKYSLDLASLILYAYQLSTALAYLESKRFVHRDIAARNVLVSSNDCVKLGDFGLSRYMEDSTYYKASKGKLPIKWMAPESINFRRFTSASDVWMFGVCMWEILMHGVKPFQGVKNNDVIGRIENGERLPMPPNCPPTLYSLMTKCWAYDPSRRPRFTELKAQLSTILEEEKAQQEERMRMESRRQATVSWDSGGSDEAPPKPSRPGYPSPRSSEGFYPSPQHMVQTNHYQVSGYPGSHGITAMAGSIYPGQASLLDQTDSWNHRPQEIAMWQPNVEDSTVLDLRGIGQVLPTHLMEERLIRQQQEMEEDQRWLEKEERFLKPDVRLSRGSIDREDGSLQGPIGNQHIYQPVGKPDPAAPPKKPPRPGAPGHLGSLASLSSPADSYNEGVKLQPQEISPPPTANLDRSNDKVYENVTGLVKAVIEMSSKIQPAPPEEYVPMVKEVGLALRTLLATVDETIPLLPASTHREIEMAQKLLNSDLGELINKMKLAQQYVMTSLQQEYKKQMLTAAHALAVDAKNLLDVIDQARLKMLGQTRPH

Target: integrin beta 4 (ITGB4) (human (endogenous in H2009)) (UniProt P16144)
Assay: co-IP

| binding | Substance |
| --- | --- |
| binds | paxillin (PXN) (from UniProt P49023 1-591) |
| binds | focal adhesion kinase (FAK) (from UniProt Q05397 1-1052) (enzyme) |
